Measured values reported in patent US20130217664A1, “NOVEL COMPOUNDS USEFUL FOR THE TREATMENT OF DEGENERATIVE AND INFLAMMATORY DISEASES” (priority 2012, published 2013).
The structures given here were assigned with low confidence; some may be wrong.

By UniProt entry, the sequences of proteins in these tests, tags left out. Residues count along the entry.
UniProt P23458, 866-1154 limits assumed: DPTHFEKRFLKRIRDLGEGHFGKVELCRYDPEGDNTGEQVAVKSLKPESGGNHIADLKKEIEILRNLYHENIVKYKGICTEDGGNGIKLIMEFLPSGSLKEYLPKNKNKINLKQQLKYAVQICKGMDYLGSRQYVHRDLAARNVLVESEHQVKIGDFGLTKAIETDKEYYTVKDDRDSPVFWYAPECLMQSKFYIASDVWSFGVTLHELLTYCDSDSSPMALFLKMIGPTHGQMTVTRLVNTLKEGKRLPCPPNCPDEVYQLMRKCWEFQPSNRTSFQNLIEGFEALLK

Target: human JAK1 (Homo sapiens, UniProt P23458)
Test: JAK1 inhibition assay (polyGT substrate / Ulight-JAK1 peptide)
Type: biochemical
Details: read-out: JAK1 IC50; recombinant human JAK1 catalytic domain; polyGT or Ulight-JAK1 peptide assay

COc1cc(C2CCN(C(=O)OC(C)(C)C)CC2)ncc1N(C)c1cc2c(cn1)ncn2C was tested, and the IC50 was > 1 µM.
